The values that follow come from the supplement of paper PMC12595434, “Development of retinoid nuclear receptor pathway antagonists through targeting aldehyde dehydrogenase 1A3” (iScience, 2025).

The chains behind the UniProt entries cited, without tags or fusion partners. Where a name states a change or a piece, a line headed by the entry shows the natural chain unless it says otherwise.
UniProt Q9BXP2: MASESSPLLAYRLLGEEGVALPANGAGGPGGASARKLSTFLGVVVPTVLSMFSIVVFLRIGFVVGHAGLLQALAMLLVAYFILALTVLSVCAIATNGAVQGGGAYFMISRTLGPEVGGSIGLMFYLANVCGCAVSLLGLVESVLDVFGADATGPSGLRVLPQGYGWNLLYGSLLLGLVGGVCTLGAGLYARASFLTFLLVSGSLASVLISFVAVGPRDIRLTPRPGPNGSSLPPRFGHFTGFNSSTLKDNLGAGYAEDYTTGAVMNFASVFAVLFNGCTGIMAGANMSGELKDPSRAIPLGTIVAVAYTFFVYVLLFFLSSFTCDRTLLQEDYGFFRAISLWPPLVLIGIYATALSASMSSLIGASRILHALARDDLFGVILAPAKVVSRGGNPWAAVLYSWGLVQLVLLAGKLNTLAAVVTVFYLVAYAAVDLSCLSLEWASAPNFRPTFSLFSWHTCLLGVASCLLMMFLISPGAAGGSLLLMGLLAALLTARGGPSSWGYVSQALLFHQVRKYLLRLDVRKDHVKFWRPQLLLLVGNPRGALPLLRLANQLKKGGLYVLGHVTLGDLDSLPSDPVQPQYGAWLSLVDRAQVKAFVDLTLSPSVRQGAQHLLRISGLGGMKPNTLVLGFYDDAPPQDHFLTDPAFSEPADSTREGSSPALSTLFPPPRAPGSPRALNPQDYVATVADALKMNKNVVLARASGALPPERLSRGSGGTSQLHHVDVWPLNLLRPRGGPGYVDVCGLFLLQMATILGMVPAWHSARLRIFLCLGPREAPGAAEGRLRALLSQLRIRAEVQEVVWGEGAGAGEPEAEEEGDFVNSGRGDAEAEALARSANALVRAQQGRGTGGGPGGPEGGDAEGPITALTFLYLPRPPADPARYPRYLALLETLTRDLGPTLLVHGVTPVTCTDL
UniProt Q99962: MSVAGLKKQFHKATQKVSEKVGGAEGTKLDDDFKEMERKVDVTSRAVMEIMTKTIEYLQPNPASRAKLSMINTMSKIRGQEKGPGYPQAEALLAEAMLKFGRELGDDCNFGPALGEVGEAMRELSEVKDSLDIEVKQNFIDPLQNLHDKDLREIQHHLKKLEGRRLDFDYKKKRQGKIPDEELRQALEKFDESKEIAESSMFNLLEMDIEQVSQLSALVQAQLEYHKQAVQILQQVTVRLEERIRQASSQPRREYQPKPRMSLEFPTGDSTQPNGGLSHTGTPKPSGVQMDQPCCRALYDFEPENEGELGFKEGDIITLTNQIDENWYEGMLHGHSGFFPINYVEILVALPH
UniProt Q99728: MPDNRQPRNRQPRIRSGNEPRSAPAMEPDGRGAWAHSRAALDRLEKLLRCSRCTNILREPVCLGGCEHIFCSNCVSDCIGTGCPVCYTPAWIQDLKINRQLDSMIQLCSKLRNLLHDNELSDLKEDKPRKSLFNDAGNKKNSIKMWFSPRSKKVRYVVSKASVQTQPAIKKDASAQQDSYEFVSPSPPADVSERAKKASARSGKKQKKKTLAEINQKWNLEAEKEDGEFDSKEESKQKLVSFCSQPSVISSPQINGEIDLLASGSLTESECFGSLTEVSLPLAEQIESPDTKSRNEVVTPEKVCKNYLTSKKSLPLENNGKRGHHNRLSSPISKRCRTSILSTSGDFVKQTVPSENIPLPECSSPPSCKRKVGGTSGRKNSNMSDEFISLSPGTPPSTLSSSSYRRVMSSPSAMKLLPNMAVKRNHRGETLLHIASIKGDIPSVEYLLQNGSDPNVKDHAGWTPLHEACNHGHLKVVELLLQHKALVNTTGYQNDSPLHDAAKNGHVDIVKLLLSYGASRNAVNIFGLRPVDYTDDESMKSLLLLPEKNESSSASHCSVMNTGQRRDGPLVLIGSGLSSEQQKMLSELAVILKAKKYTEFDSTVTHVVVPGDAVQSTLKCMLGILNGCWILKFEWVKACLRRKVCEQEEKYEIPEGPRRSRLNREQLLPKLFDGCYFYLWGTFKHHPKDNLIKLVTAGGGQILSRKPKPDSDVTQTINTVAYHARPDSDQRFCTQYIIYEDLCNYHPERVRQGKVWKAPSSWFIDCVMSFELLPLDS
UniProt Q99996, whole entry: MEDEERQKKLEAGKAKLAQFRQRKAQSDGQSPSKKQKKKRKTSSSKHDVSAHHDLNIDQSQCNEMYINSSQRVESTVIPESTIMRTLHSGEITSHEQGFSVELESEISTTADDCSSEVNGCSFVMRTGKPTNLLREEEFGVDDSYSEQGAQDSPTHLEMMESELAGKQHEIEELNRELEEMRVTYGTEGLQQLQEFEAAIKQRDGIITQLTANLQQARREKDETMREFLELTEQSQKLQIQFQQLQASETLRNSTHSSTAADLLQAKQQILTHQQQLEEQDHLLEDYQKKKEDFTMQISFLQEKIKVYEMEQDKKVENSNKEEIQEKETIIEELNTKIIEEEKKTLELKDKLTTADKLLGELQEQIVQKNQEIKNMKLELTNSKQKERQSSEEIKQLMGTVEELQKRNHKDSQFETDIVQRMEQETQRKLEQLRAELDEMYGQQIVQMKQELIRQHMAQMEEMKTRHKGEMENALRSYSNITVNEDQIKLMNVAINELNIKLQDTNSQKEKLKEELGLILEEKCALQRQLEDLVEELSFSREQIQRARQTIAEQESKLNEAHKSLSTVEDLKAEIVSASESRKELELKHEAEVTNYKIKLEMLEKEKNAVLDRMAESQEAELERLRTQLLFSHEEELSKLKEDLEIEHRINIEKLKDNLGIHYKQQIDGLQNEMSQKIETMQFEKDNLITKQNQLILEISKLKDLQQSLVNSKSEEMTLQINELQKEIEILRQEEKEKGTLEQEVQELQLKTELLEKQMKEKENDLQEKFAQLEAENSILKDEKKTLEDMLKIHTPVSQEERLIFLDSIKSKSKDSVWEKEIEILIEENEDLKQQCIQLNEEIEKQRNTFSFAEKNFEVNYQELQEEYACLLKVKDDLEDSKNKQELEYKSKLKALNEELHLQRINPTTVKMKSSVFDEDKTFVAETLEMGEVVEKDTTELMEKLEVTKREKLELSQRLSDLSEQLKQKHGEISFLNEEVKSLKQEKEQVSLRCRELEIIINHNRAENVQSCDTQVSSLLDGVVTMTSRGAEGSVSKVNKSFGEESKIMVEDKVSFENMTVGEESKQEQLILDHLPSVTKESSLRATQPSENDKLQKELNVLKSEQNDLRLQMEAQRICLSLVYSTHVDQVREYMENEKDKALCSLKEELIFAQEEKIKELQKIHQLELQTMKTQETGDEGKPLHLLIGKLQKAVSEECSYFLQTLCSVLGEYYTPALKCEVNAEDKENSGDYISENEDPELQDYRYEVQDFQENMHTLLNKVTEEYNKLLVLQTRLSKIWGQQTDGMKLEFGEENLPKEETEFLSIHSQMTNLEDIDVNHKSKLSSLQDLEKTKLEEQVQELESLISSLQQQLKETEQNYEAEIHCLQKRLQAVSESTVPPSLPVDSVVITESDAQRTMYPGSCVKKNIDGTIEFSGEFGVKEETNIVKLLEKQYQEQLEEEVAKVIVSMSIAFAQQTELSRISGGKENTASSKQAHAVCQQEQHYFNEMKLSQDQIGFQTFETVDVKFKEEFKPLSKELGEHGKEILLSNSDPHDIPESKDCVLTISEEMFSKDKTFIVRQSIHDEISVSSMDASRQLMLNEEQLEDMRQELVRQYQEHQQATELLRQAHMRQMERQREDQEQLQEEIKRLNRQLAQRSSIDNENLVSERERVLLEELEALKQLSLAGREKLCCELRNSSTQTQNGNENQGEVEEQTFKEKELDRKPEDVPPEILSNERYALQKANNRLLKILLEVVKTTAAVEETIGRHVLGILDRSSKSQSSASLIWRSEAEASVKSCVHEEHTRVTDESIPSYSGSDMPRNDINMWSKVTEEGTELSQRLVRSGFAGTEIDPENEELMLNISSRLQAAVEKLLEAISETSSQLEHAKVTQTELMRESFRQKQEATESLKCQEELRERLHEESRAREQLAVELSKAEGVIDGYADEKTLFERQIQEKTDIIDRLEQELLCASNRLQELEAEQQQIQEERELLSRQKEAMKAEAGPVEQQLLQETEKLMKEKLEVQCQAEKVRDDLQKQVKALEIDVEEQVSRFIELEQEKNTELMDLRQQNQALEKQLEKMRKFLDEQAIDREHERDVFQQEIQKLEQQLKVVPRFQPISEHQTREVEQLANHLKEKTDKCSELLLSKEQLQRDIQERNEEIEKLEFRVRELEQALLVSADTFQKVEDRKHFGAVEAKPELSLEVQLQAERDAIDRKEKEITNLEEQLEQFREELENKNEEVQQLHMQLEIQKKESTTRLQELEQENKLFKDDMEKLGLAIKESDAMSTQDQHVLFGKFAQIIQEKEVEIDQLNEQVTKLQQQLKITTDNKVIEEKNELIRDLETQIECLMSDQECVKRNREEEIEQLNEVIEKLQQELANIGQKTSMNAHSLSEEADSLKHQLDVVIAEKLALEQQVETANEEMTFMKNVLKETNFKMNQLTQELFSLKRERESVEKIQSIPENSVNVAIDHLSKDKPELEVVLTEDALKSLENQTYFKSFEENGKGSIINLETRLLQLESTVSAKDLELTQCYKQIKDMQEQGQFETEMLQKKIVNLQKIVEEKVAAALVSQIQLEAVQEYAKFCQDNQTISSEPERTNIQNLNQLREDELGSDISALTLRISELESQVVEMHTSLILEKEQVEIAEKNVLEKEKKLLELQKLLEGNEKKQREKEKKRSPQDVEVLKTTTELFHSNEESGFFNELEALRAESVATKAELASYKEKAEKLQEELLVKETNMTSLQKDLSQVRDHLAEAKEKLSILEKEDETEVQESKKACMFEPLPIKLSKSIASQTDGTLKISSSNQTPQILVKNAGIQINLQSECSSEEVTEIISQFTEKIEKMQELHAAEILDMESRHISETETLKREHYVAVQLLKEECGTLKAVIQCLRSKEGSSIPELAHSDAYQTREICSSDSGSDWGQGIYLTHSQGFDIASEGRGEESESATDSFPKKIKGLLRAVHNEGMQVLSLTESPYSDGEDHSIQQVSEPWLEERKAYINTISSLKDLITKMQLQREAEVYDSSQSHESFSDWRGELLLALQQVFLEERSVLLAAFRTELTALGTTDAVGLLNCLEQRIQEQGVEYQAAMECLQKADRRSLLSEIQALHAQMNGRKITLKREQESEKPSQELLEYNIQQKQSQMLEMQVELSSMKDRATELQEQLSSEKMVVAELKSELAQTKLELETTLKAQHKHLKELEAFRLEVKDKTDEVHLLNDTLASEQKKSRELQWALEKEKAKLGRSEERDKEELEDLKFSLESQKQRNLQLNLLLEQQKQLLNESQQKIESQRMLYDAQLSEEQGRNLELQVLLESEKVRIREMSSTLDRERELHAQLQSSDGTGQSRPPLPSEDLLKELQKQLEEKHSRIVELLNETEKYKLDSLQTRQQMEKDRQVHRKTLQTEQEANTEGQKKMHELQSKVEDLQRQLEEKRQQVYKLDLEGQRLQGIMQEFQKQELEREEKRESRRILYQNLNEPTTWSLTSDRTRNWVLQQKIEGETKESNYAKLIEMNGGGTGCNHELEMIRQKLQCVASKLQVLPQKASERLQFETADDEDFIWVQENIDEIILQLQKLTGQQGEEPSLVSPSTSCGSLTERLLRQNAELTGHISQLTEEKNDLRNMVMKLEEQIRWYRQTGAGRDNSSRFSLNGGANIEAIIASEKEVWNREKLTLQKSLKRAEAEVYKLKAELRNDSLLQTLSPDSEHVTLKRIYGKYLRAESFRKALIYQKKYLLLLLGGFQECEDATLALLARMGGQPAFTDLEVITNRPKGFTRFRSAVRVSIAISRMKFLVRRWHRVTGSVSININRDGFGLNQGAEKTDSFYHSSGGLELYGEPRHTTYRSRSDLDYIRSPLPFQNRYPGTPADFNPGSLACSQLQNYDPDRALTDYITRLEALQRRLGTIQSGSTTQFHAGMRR
UniProt Q9BUT9: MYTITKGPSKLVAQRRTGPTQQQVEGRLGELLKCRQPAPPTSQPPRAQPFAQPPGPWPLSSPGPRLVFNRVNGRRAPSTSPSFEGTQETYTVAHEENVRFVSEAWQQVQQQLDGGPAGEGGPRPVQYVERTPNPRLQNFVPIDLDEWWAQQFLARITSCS
UniProt Q9BW66: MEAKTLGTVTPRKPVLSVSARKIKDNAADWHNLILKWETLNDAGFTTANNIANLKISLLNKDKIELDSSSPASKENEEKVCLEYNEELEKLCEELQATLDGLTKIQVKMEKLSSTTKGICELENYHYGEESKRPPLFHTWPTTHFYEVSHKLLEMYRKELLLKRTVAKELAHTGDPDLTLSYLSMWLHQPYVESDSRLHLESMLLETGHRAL
UniProt Q99653: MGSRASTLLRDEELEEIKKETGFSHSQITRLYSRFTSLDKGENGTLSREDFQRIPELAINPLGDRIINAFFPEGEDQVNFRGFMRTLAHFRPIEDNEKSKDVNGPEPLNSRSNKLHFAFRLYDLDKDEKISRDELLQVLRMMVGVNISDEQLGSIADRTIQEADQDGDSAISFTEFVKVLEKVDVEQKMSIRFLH

Compound in the test: CCc1cnccc1C(=O)Nc1cc2c(cc1F)NC(=O)CC2
The experiment in a line: melting temperature shift (DMSO Tm minus MBE1-treated Tm) in cellular thermal proteome profiling; higher = less thermal stabilization by MBE1 (negative = stabilized by MBE1). As to conditions: A375.

The list shows a part of the results. This is a noisy data set.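 Many melting curves are irregular; where none melted, Tm was taken as 64 °C.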

For the target KIFC3 (UniProt Q9BVG8), the melting temperature shift was -1.68 °C (MBE1 concentration: 100 nM) and -3.31 °C (MBE1 concentration: 1 uM).

Consider PRMT1 (UniProt Q99873), for which the melting temperature shift by setting is: (MBE1 concentration: 100 nM) -0.449 °C; (MBE1 concentration: 1 uM) 0.503 °C.

Take DCUN1D5 (UniProt Q9BTE7): the melting temperature shift is 0.102 °C (MBE1 concentration: 100 nM) and -0.231 °C (MBE1 concentration: 1 uM).

On to TTPAL (UniProt Q9BTX7), for which the melting temperature shift reads like this: (MBE1 concentration: 100 nM) -0.476 °C; (MBE1 concentration: 1 uM) 0.25 °C.

On to FERMT1 (UniProt Q9BQL6), for which the melting temperature shift is, setting by setting: (MBE1 concentration: 100 nM) 0.879 °C; (MBE1 concentration: 1 uM) 0.134 °C.

UniProt Q99828: the melting temperature shift reads like this: (MBE1 concentration: 100 nM) 0.434 °C; (MBE1 concentration: 1 uM) 2.25 °C.

For the target HTATIP2 (UniProt Q9BUP3), the melting temperature shift (MBE1 concentration: 100 nM) worked out at 0.879 °C and the melting temperature shift (MBE1 concentration: 1 uM) was -0.0916 °C.

On to CPPED1 (UniProt Q9BRF8), for which the melting temperature shift (MBE1 concentration: 100 nM) is -2.18 °C and the melting temperature shift (MBE1 concentration: 1 uM) is -2 °C.

In the case of FYCO1 (UniProt Q9BQS8), the melting temperature shift runs as follows: (MBE1 concentration: 100 nM) 0.879 °C; (MBE1 concentration: 1 uM) 0.678 °C.

Consider BAG1 (UniProt Q99933), for which the melting temperature shift is -1.52 °C (MBE1 concentration: 100 nM) and -2.95 °C (MBE1 concentration: 1 uM).

Turning to MSTO1 (UniProt Q9BUK6), the melting temperature shift runs as follows: (MBE1 concentration: 100 nM) 0.482 °C; (MBE1 concentration: 1 uM) 0.586 °C.

Consider UniProt Q9BRU9, for which the melting temperature shift is -0.342 °C (MBE1 concentration: 100 nM) and 7.34 °C (MBE1 concentration: 1 uM).

UniProt Q9BXP2: the melting temperature shift reads like this: (MBE1 concentration: 100 nM) -0.443 °C; (MBE1 concentration: 1 uM) 1.21 °C.

Regarding PKMYT1 (UniProt Q99640), the melting temperature shift by setting is: (MBE1 concentration: 100 nM) 0.207 °C; (MBE1 concentration: 1 uM) 1.89 °C.

With SH3GL2 (UniProt Q99962), the melting temperature shift came to 0.442 °C (MBE1 concentration: 100 nM) and 4.85 °C (MBE1 concentration: 1 uM).

For the target UniProt Q9BXY0, the melting temperature shift runs as follows: (MBE1 concentration: 100 nM) -0.604 °C; (MBE1 concentration: 1 uM) 0.741 °C.

Turning to NAP1L4 (UniProt Q99733), the melting temperature shift is -0.637 °C (MBE1 concentration: 100 nM) and -0.163 °C (MBE1 concentration: 1 uM).

For SDF4 (UniProt Q9BRK5), the melting temperature shift is -0.521 °C (MBE1 concentration: 100 nM) and 0.195 °C (MBE1 concentration: 1 uM).

With UniProt Q9BX66, the melting temperature shift is, setting by setting: (MBE1 concentration: 100 nM) -0.832 °C; (MBE1 concentration: 1 uM) 0.183 °C.

SPATA5L1 (UniProt Q9BVQ7): the melting temperature shift reads like this: (MBE1 concentration: 100 nM) 0.0469 °C; (MBE1 concentration: 1 uM) 0.778 °C.

With ECSIT (UniProt Q9BQ95), the melting temperature shift by setting is: (MBE1 concentration: 100 nM) -0.689 °C; (MBE1 concentration: 1 uM) -1.69 °C.

In the case of TM9SF2 (UniProt Q99805), the melting temperature shift reads like this: (MBE1 concentration: 100 nM) -0.577 °C; (MBE1 concentration: 1 uM) 0.711 °C.

UniProt Q99728: the melting temperature shift (MBE1 concentration: 100 nM) is -4.53 °C and the melting temperature shift (MBE1 concentration: 1 uM) is -2.59 °C.

Take WDR18 (UniProt Q9BV38): the melting temperature shift (MBE1 concentration: 100 nM) was -1.16 °C and the melting temperature shift (MBE1 concentration: 1 uM) is -0.61 °C.

With ALG1 (UniProt Q9BT22), the melting temperature shift was -1.01 °C (MBE1 concentration: 100 nM) and 0.409 °C (MBE1 concentration: 1 uM).

For the target MRI1 (UniProt Q9BV20), the melting temperature shift is, setting by setting: (MBE1 concentration: 100 nM) -0.61 °C; (MBE1 concentration: 1 uM) -0.275 °C.

Take HAUS8 (UniProt Q9BT25): the melting temperature shift is, setting by setting: (MBE1 concentration: 100 nM) -1.44 °C; (MBE1 concentration: 1 uM) -0.339 °C.

Regarding UniProt Q99877, the melting temperature shift is, setting by setting: (MBE1 concentration: 100 nM) 0.457 °C; (MBE1 concentration: 1 uM) -0.281 °C.

As to OSBPL1A (UniProt Q9BXW6), the melting temperature shift reads like this: (MBE1 concentration: 100 nM) 0.647 °C; (MBE1 concentration: 1 uM) -0.537 °C.

With SCNM1 (UniProt Q9BWG6), the melting temperature shift is -0.107 °C (MBE1 concentration: 100 nM) and 0.399 °C (MBE1 concentration: 1 uM).

As for BDH2 (UniProt Q9BUT1), the melting temperature shift by setting is: (MBE1 concentration: 100 nM) -0.91 °C; (MBE1 concentration: 1 uM) -0.415 °C.

Consider RUSC1 (UniProt Q9BVN2), for which the melting temperature shift by setting is: (MBE1 concentration: 100 nM) -1.27 °C; (MBE1 concentration: 1 uM) -0.301 °C.

In the case of MTA3 (UniProt Q9BTC8), the melting temperature shift is -0.614 °C (MBE1 concentration: 100 nM) and -0.421 °C (MBE1 concentration: 1 uM).

TMED9 (UniProt Q9BVK6): the melting temperature shift reads like this: (MBE1 concentration: 100 nM) -1.66 °C; (MBE1 concentration: 1 uM) -1.02 °C.

On to KXD1 (UniProt Q9BQD3), for which the melting temperature shift by setting is: (MBE1 concentration: 100 nM) -1.11 °C; (MBE1 concentration: 1 uM) 1.14 °C.

On to POLDIP3 (UniProt Q9BY77), for which the melting temperature shift was 1.21 °C (MBE1 concentration: 100 nM) and 0.128 °C (MBE1 concentration: 1 uM).

Turning to TSG101 (UniProt Q99816), the melting temperature shift by setting is: (MBE1 concentration: 100 nM) 0.757 °C; (MBE1 concentration: 1 uM) 0.641 °C.

Consider POLR3C (UniProt Q9BUI4), for which the melting temperature shift (MBE1 concentration: 100 nM) is -0.672 °C and the melting temperature shift (MBE1 concentration: 1 uM) is -0.623 °C.

As for UniProt Q9BRK0, the melting temperature shift is -1.38 °C (MBE1 concentration: 100 nM) and -2.31 °C (MBE1 concentration: 1 uM).

DPH2 (UniProt Q9BQC3): the melting temperature shift runs as follows: (MBE1 concentration: 100 nM) -0.798 °C; (MBE1 concentration: 1 uM) 0.574 °C.

Consider AKAP9 (UniProt Q99996), for which the melting temperature shift reads like this: (MBE1 concentration: 100 nM) -0.0894 °C; (MBE1 concentration: 1 uM) -0.226 °C.

As to ACO2 (UniProt Q99798), the melting temperature shift (MBE1 concentration: 100 nM) was 1.06 °C and the melting temperature shift (MBE1 concentration: 1 uM) came out at 0.891 °C.

In the case of KATNB1 (UniProt Q9BVA0), the melting temperature shift (MBE1 concentration: 100 nM) came to 0.421 °C and the melting temperature shift (MBE1 concentration: 1 uM) is 0.263 °C.

For UniProt Q9BRT8, the melting temperature shift is -1.98 °C (MBE1 concentration: 100 nM) and -0.127 °C (MBE1 concentration: 1 uM).

For the target FAM118B (UniProt Q9BPY3), the melting temperature shift by setting is: (MBE1 concentration: 100 nM) -0.32 °C; (MBE1 concentration: 1 uM) 0.235 °C.

For TCF25 (UniProt Q9BQ70), the melting temperature shift is -0.405 °C (MBE1 concentration: 100 nM) and -0.62 °C (MBE1 concentration: 1 uM).

Turning to COQ7 (UniProt Q99807), the melting temperature shift was -2.58 °C (MBE1 concentration: 100 nM) and -0.501 °C (MBE1 concentration: 1 uM).

Take PDCD10 (UniProt Q9BUL8): the melting temperature shift (MBE1 concentration: 100 nM) was -1.47 °C and the melting temperature shift (MBE1 concentration: 1 uM) is 0.0122 °C.

For ESYT1 (UniProt Q9BSJ8), the melting temperature shift (MBE1 concentration: 100 nM) was -0.0188 °C and the melting temperature shift (MBE1 concentration: 1 uM) was -0.216 °C.

Turning to UniProt Q9BQT8, the melting temperature shift runs as follows: (MBE1 concentration: 100 nM) -3.98 °C; (MBE1 concentration: 1 uM) -4.16 °C.

Consider FAM195A (UniProt Q9BUT9), for which the melting temperature shift (MBE1 concentration: 100 nM) stood at 0.33 °C and the melting temperature shift (MBE1 concentration: 1 uM) came to 2.16 °C.

On to CINP (UniProt Q9BW66), for which the melting temperature shift by setting is: (MBE1 concentration: 100 nM) -1.86 °C; (MBE1 concentration: 1 uM) 1.46 °C.

On to FANCD2 (UniProt Q9BXW9), for which the melting temperature shift reads like this: (MBE1 concentration: 100 nM) -0.698 °C; (MBE1 concentration: 1 uM) -0.173 °C.

On to C7ORF50 (UniProt Q9BRJ6), for which the melting temperature shift (MBE1 concentration: 100 nM) was -1.04 °C and the melting temperature shift (MBE1 concentration: 1 uM) is -1.96 °C.

Take PAAF1 (UniProt Q9BRP4): the melting temperature shift reads like this: (MBE1 concentration: 100 nM) -0.769 °C; (MBE1 concentration: 1 uM) -0.702 °C.

Turning to C20ORF24 (UniProt Q9BUV8), the melting temperature shift (MBE1 concentration: 100 nM) was -0.189 °C and the melting temperature shift (MBE1 concentration: 1 uM) was 1.91 °C.

As for PIK3R4 (UniProt Q99570), the melting temperature shift reads like this: (MBE1 concentration: 100 nM) 0.574 °C; (MBE1 concentration: 1 uM) 0.488 °C.

With PRPF18 (UniProt Q99633), the melting temperature shift is, setting by setting: (MBE1 concentration: 100 nM) -1.14 °C; (MBE1 concentration: 1 uM) -0.146 °C.

With TBCD (UniProt Q9BTW9), the melting temperature shift came out at 0.568 °C (MBE1 concentration: 100 nM) and 0.299 °C (MBE1 concentration: 1 uM).

In the case of DPH7 (UniProt Q9BTV6), the melting temperature shift is, setting by setting: (MBE1 concentration: 100 nM) -1.11 °C; (MBE1 concentration: 1 uM) 0.116 °C.

For TSEN34 (UniProt Q9BSV6), the melting temperature shift (MBE1 concentration: 100 nM) was -1.52 °C and the melting temperature shift (MBE1 concentration: 1 uM) is 0.00641 °C.

Turning to SELO (UniProt Q9BVL4), the melting temperature shift turned out to be 2.24 °C (MBE1 concentration: 100 nM) and 0.947 °C (MBE1 concentration: 1 uM).

As for S100A13 (UniProt Q99584), the melting temperature shift (MBE1 concentration: 100 nM) is -0.437 °C and the melting temperature shift (MBE1 concentration: 1 uM) was -1.81 °C.

On to RIOK1 (UniProt Q9BRS2), for which the melting temperature shift runs as follows: (MBE1 concentration: 100 nM) -2.11 °C; (MBE1 concentration: 1 uM) 0.434 °C.

Regarding EIF3C (UniProt Q99613), the melting temperature shift (MBE1 concentration: 100 nM) is -0.522 °C and the melting temperature shift (MBE1 concentration: 1 uM) was -0.358 °C.

On to VPS25 (UniProt Q9BRG1), for which the melting temperature shift by setting is: (MBE1 concentration: 100 nM) 0.402 °C; (MBE1 concentration: 1 uM) 0.449 °C.

Take FAM103A1 (UniProt Q9BTL3): the melting temperature shift reads like this: (MBE1 concentration: 100 nM) 0.818 °C; (MBE1 concentration: 1 uM) -2.47 °C.

As for CHP1 (UniProt Q99653), the melting temperature shift (MBE1 concentration: 100 nM) was -0.403 °C and the melting temperature shift (MBE1 concentration: 1 uM) came to 0.238 °C.
